Test results reported in PubChem BioAssay AID1347423 (Functional Genomics Laboratory (NCATS/FGL), 2020).
Screen size: about 52,000 sequences; about 210 (0.4%) were called active.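 The calls were made as follows: active = gene whose silencing raises cell survival under the drug, median off-target-corrected z-score across its silencing RNAs 2 or more; inactive = the rest.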 This is one part of the list.

Assay: Resistance to Poly (ADP-Ribose) Polymerase inhibitor: Gene Identification via Genome-wide siRNA Screen
Settings: mouse BRCA2 R2336H ES cells, olaparib, CellTiter-Glo viability; active compounds read high
Outline: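 Genome-wide siRNA screen (3 siRNAs/gene, 20 nM) in mouse ES cells carrying hypomorphic BRCA2 R2336H; olaparib 500 nM added 48 h post-transfection, CellTiter-Glo viability 72 h later. Normalized to plate-median negative control; MAD z-scores, gene median, seed-adjusted.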
For CCAUUACUUCUGUGACCUCTT against Olfr32, the z-score was inactive: -0.452.
In the case of CCGUAGUAGAGAAAUUACATT against Sec15l1, the z-score is reported as inactive: -0.596.
With GCACCAUAACGUAAGGCAUTT against Ghsr the z-score was inactive: -1.02.
In the case of CGAACAGUGCUUCGUAUGUTT against Lims1, the z-score is reported as inactive: -1.3.
For CGAGAUUUCUGAUGAUGAUTT against Osbpl3, the z-score was inactive: -1.47.
In the case of CCGCUGAAAAUGGAAGUUATT against Mrgprb4, the z-score is reported as inactive: -1.1.
For GGUGAUACUACAUAUCAAGTT against Adamts8, the z-score was inactive: 0.089.
With CCAUUUAAUCCAUAUUUCCTT against Gnao1 the z-score was inactive: -0.379.
In the case of CCCUGUCUCCCGCAUAGAATT against Itgb6, the z-score is reported as active: 1.67.
For GCUCGUCGGCUUUUUGUAATT against BC061194, the z-score was inactive: -0.189.
In the case of GCGGAGUGUCAAUAAAAUATT against Atp6v1g2, the z-score is reported as inactive: -0.251.
For GCUGGAGAAUAAGCUAAUUTT against Kif13a, the z-score was inactive: 2.05.
With CCAUCCAGUCCCUAAGAAATT against Gm1053 the z-score was inactive: 1.27.
For “GCAUUGGAACCAUGUGCUGTT against 1700112C13Rik”, the z-score was inactive: -0.516.
In the case of CCACGGGCCAAAUGAAGACTT against Tnfrsf7, the z-score is reported as inactive: -0.465.
For GGAAAAGCAGACAUGUGAUTT against Dedd, the z-score was inactive: 1.16.
With GGAGCUUCGUGGAUAAGAGTT against Padi3 the z-score was inactive: -1.21.
With “CCUUAUGGAGCAAACAACATT against 4930412F15Rik” the z-score was inactive: 0.769.
For GGCAUAUGUUCGUCUUUCATT against Asf1b, the z-score was inactive: -1.53.
For GGCUUUCGUUUACAACAAGTT against Naglu, the z-score was inactive: 2.05.
With “GCUCAGUUGGCAUCCUGUUTT against D3Ertd250e” the z-score was inactive: -1.98.
For “CCUCUAAGUAUAUCUUGGATT against 5430433L24Rik”, the z-score was inactive: -2.07.
In the case of GGAGGAUUUGCCAAGUAACTT against Zbtb33, the z-score is reported as inactive: -0.219.
In the case of GCUUAUCUGUCAGUACCACTT against Cxcr6, the z-score is reported as inactive: 0.549.
With GCUCAUUUCCAGAAGACACTT against Tas2r102 the z-score was inactive: 0.153.
For “GGGUGGUGACCCUAAAACUTT against 4933405K07Rik”, the z-score was inactive: -0.0548.
For “GCAAAAAGUGGAAUACUAUTT against C230081A13Rik”, the z-score was inactive: 0.425.
With CGGAUGAAUGGACUUCCAATT against Dcx the z-score was inactive: -2.07.
In the case of GGAACACUGGGAACGUAUCTT against Ifnk, the z-score is reported as inactive: 0.11.
